Test results reported in the supplement of paper PMC6078165.
The reference is the same well before dosing, and untreated signal decays as well.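 Fibroblast labels denote human fibroblasts, mainly primary ones from uterus (C12385, HUF), lung (H6013), bone (Hs27A), adrenal (HADF) and skin (WS1), plus mammary HMF and breast cancer-associated Hs343T. Cancer cells are basal-like or mesenchymal-like triple-negative breast cancer lines. A hit is a response shift exceeding 3x replicate standard deviation. The tissue of the other fibroblasts is not given here.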

Tested on: Hs578T
Experiment: relative JC-1 red fluorescence (viability) vs pre-drug, coculture with fibroblast (fraction); higher = more viable cancer cells
Details: 100 µM
Description: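 JC-1 labelled TNBC cells cocultured 1:1 (1,500 cells each) with CellTrace Violet stained primary or stromal fibroblasts in 384-well plates in FluoroBrite medium, treated with one of 42 anticancer drugs at 0.1, 1, 10 or 100 uM. JC-1 red fluorescence (mitochondrial integrity in cancer cells only) was read by plate reader every 8 h for 72 h. Values are normalised to each well's pre-drug value. The stock of one drug was tenfold lower, so its dose labels may be too high.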

CCc1c2c(nc3ccc(OC(=O)N4CCC(N5CCCCC5)CC4)cc13)-c1cc3c(c(=O)n1C2)COC(=O)[C@]3(O)CC [Irinotecan]
Details | relative JC-1 red fluorescence
8 h | 0.921
16 h | 0.875
24 h | 0.857
32 h | 0.8155
40 h | 0.747
48 h | 0.707
56 h | 0.719
64 h | 0.685
72 h | 0.694

relative JC-1 red fluorescence
Details | 8 h | 16 h | 24 h | 32 h | 40 h | 48 h | 56 h | 64 h | 72 h
coculture fibroblast: C12385 | 0.84 | 0.827 | 0.815 | 0.763 | 0.699 | 0.681 | 0.669 | 0.658 | 0.658
coculture fibroblast: H6013 | 0.919 | 0.936 | 0.8898 | 0.845 | 0.84 | 0.857 | 0.801 | 0.857 | 0.858
coculture fibroblast: H6019 | 0.824 | 0.8 | 0.8007 | 0.731 | 0.711 | 0.72 | 0.715 | 0.7209 | 0.7176
coculture fibroblast: H6076 | 0.95 | 0.923 | 0.925 | 0.939 | 0.912 | 0.925 | 0.918 | 0.925 | 0.938
coculture fibroblast: H6231 | 0.95946 | 0.921 | 0.89 | 0.842 | 0.774 | 0.758 | 0.733 | 0.72 | 0.708
coculture fibroblast: HADF | 0.957 | 0.895 | 0.977 | 0.951 | 0.937 | 0.936 | 0.92 | 0.92 | 0.897
coculture fibroblast: HCFa | 0.911 | 0.927 | 0.92 | 0.878 | 0.847 | 0.864 | 0.866 | 0.877 | 0.871
coculture fibroblast: HCPF | 0.953 | 0.899 | 0.884 | 0.846 | 0.766 | 0.742 | 0.736 | 0.695 | 0.676
coculture fibroblast: HHSteC | 0.944 | 0.953 | 0.945 | 0.928 | 0.924 | 0.92 | 0.917 | 0.888 | 0.874
coculture fibroblast: HMF | 0.9359 | 0.9195 | 0.9147 | 0.885 | 0.8226 | 0.79 | 0.801 | 0.7854 | 0.7762
coculture fibroblast: HPFa | 0.9382 | 0.9542 | 0.936 | 0.914 | 0.915 | 0.935 | 0.934 | 0.957 | 0.921
coculture fibroblast: HUF | 0.867 | 0.807 | 0.793 | 0.7023 | 0.639 | 0.6 | 0.562 | 0.554 | 0.553
coculture fibroblast: Hs27A | 0.9271 | 0.939 | 0.938 | 0.922 | 0.8931 | 0.923 | 0.903 | 0.895 | 0.851
coculture fibroblast: Hs343T | 0.968 | 0.922 | 0.894 | 0.847 | 0.77 | 0.747 | 0.718 | 0.7138 | 0.707
coculture fibroblast: WS1 | 0.84 | 0.813 | 0.798 | 0.706 | 0.642 | 0.637 | 0.62 | 0.621 | 0.615
